Reference: paper PMC6199744, “Development of Chemical Proteomics for the Folateome and Analysis of the Kinetoplastid Folateome” (ACS Infectious Diseases, 2018)
The source gives many values for each of these; only a part stands here.

Tested on: L. major lysate proteins
Test: Multitargeted bead mixture chemoproteomics, single concentration competition, proteome-wide
Type: binding
Conditions: vs vehicle control

Structure (SMILES): Nc1nc2[nH]cc(CCc3ccc(C(=O)N[C@@H](CCC(=O)O)C(=O)O)cc3)c2c(=O)[nH]1 [PTX, pemetrexed]
- fold change (protein LMJF.15.0240 N[…]-TRANSFER PROTEIN, PUTATIVE,STEROL CARRIER PROTEIN, PUTATIVE): 1.24
- fold change (protein LMJF.15.0950 40S RIBOSOMAL PROTEIN S3, PUTATIVE): 1.05
- fold change (protein LMJF.16.0440 FUCOSE KINASE, PUTATIVE): 0.91
- fold change (protein LMJF.16.0550 OROTIDINE-5-PHOSPHATE DECARBOXYLASE/OROTATE PHOSPHORIBOSYLTRANSFERASE, PUTATIVE): 0.86
- fold change (protein LMJF.18.0700 HY[…], CONSERVED): 0.73
- fold change (protein LMJF.18.1280 HY[…], CONSERVED): 0.87
- fold change (protein LMJF.19.0060 40S RIBOSOMAL PROTEIN S2): 1.37
- fold change (protein LMJF.19.0490 HY[…], CONSERVED): 0.77
- fold change (protein LMJF.19.0710 […] DEHYDROGENASE): 0.96
- fold change (protein LMJF.21.0250 HEXOKINASE, PUTATIVE): 0.86
- fold change (protein LMJF.21.0760 […]-ATP-ASE SUBUNIT 5, PUTATIVE,19S […]): 0.7
- fold change (protein LMJF.21.0800 HY[…], CONSERVED): 0.49
- fold change (protein LMJF.21.1250 ADENYLATE KINASE, PUTATIVE): 0.77
- fold change (protein LMJF.21.1770 ATP SYNTHASE F1 SUBUNIT GAMMA PROTEIN, PUTATIVE): 0.96
- fold change (protein LMJF.21.1860 BETA TUBULIN): 0.99
- fold change (protein LMJF.22.0300 HY[…], CONSERVED): 0.77
- fold change (protein LMJF.22.0410 HY[…], CONSERVED): 0.85
- fold change (protein LMJF.22.0620 […] SUBUNIT 5, PUTATIVE): 1.01
- fold change (protein LMJF.22.0990 HY[…], CONSERVED): 0.94
- fold change (protein LMJF.22.1290 RIBONUCLEOSIDE-DIPHOSPHATE REDUCTASE SMALL CHAIN, PUTATIVE): 0.72
- fold change (protein LMJF.22.1500 ATP-DEPENDENT DEAD/H RNA HELICASE, PUTATIVE): 1.18
- fold change (protein LMJF.23.0380 ATP-BINDING CASSETTE PROTEIN SUBFAMILY G, MEMBER 5, PUTATIVE): 0.84
- fold change (protein LMJF.23.0830 NA/H ANTIPORTER-LIKE PROTEIN): 0.89
- fold change (protein LMJF.23.1350 ACETYLTRANSFERASE-LIKE PROTEIN): 0.84
- fold change (protein LMJF.25.1210 HY[…], CONSERVED): 0.87
- fold change (protein LMJF.26.0280 HY[…], CONSERVED): 0.86
- fold change (protein LMJF.27.0420 RIBOKINASE, PUTATIVE): 0.97
- fold change (protein LMJF.27.1810 GLYCOSOMAL PHOSPHOENOLPYRUVATE CARBOXYKINASE, PUTATIVE): 1.03
- fold change (protein LMJF.27.2630 ATP-DEPENDENT CLP PROTEASE SUBUNIT, HEAT SHOCK PROTEIN 78 (HSP78), PUTATIVE): 0.76
- fold change (protein LMJF.28.2250 […] PROTEIN-LIKE PROTEIN): 1.14
- fold change (protein LMJF.29.0060 TRYPTOPHANYL-TRNA SYNTHETASE, PUTATIVE): 0.92
- fold change (protein LMJF.29.1550 HY[…], CONSERVED): 0.46
- fold change (protein LMJF.29.1720 HISTONE H2A, PUTATIVE): 1
- fold change (protein LMJF.29.1830 DIHYDROLIPOAMIDE DEHYDROGENASE, PUTATIVE): 0.76
- fold change (protein LMJF.29.2440 HY[…], CONSERVED): 0.76
- fold change (protein LMJF.30.1010 UBIQUITIN FUSION D[…] 2, PUTATIVE,UBIQUITIN C[…] E4 B, PUTATIVE): 0.47
- fold change (protein LMJF.30.1940 SUCCINYL-COA:3-KETOACID-COENZYME A TRANSFERASE- LIKE PROTEIN): 0.9
- fold change (protein LMJF.30.3110 S-ADENOSYLMETHIONINE DECARBOXYLASE): 0.64
- fold change (protein LMJF.30.3190 3-HYDROXY-3-METHYLGLUTARYL-COA REDUCTASE): 0.64
- fold change (protein LMJF.30.3390 CAS/CSE/IMPORTIN DOMAIN PROTEIN, PUTATIVE): 0.74
- fold change (protein LMJF.31.1800 AMINO ACID PERMEASE): 0.93
- fold change (protein LMJF.31.2640 2-OXOGLUTARATE DEHYDROGENASE, E3 COMPONENT, LIPOAMIDEDEHYDROGENASE-LIKE PROTEIN): 0.94
- fold change (protein LMJF.31.2650 ACETOIN DEHYDROGENASE E3 COMPONENT-LIKE PROTEIN): 0.94
- fold change (protein LMJF.31.2970 ACETYL-COA CARBOXYLASE, PUTATIVE): 0.73
- fold change (protein LMJF.31.3130 METHYLCROTONOYL-COA CARBOXYLASE BIOTINYLATED SUBUNITPROTEIN-LIKE PROTEIN): 0.85
- fold change (protein LMJF.32.0390 […]-ATP-ASE SUBUNIT 8, PUTATIVE,26S […], PUTATIVE): 0.73
- fold change (protein LMJF.32.3640 HY[…], CONSERVED): 0.7
- fold change (protein LMJF.33.0830 2,4-DIENOYL-COA REDUCTASE FADH1, PUTATIVE): 0.95
- fold change (protein LMJF.33.1030 HY[…], CONSERVED): 0.91
- fold change (protein LMJF.33.1610 PEPTIDASE M20/M25/M40, PUTATIVE): 0.7
- fold change (protein LMJF.34.0010 HY[…], CONSERVED): 0.86
- fold change (protein LMJF.34.3740 SERINE PALMITOYLTRANSFERASE-LIKE PROTEIN): 0.86
- fold change (protein LMJF.35.1880 60S RIBOSOMAL PROTEIN L5, PUTATIVE): 0.93
- fold change (protein LMJF.35.2150 HY[…], CONSERVED): 0.82
- fold change (protein LMJF.35.2330 HY[…], CONSERVED): 0.63
- fold change (protein LMJF.35.4550 HY[…], CONSERVED): 0.69
- fold change (protein LMJF.35.4760 HY[…], CONSERVED): 0.9
- fold change (protein LMJF.35.4860 HY[…], CONSERVED): 0.78
- fold change (protein LMJF.35.5040 polyadenylate-binding protein 1): 0.76
- fold change (protein LMJF.36.0250 EIF3-INTERACTING PROTEIN-LIKE PROTEIN): 0.87
- fold change (protein LMJF.36.0320 […] 2 SUBUNIT, PUTATIVE): 0.95
- fold change (protein LMJF.36.1670 HY[…], CONSERVED): 0.52
- fold change (protein LMJF.36.2160 HY[…], CONSERVED): 0.83
- fold change (protein LMJF.36.3760 60S RIBOSOMAL PROTEIN L10A, PUTATIVE): 1.04
- fold change (protein LMJF.36.5100 HY[…], CONSERVED): 0.95
